Measured values published in PubChem BioAssay AID1851 (National Center for Advancing Translational Sciences (NCATS), 2009).
About 2,600 (16%) of roughly 16,000 compounds were called active. Inconclusive means that the source gave no clear call. Such entries were picked first, then a sample of the others. Calls follow the shape of the dose curve; as a rule, active = well fitted curve in the direction sought with a large enough effect; inconclusive = small, poorly fitted or top-dose-only effect, or effect the other way; inactive = no such curve, though single readings can be large or run the other way. Potencies beside an inconclusive call are fits to weak or partial responses and may not hold up.

Chains of the proteins cited; added tags and fusions are not shown.
UniProt P10635, whole entry, looked up: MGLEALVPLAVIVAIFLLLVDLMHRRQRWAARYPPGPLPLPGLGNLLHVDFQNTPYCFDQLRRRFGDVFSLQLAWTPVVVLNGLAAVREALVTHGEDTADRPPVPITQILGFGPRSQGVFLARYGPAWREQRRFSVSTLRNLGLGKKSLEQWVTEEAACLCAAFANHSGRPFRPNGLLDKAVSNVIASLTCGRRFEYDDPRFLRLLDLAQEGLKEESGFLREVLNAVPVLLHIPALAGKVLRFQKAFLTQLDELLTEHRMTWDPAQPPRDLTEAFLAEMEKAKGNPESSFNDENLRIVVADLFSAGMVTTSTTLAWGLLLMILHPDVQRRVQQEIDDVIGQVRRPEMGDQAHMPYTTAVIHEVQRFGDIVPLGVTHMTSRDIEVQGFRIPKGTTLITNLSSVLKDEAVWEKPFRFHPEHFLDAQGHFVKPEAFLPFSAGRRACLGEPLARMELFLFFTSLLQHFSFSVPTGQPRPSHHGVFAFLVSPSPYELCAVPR

target: Cytochrome P450 2D6 (Homo sapiens) (UniProt P10635); assay: Cytochrome panel assay with activity outcomes; settings: recombinant CYP, pro-luciferin dealkylation, luminescence, p450-cyp2d6; series mostly up to 57.1 µM
Protocol: The P450 gene superfamily is involved in the metabolism and clearance of xenobiotics. This assay used various human CYP P450 isozymes to measure the dealkylation of various pro-luciferin substrates to luciferin. The luciferin is then measured by luminescence after the addition of a luciferase detection reagent. Pro-luciferin substrate concentration in the assay was equal to its KM for its CYP P450 isozyme. Inhibitors and some substrates limit the production of luciferin, and decrease measured luminescence.
NCGC Assay Protocol Summary:
1, Reagent, 2 uL, Isozyme and Pro-Luciferin
2, Library compounds, 23 nl, 40 uM to 0.24 nM dilution series
3, Controls, 23 nl, Isozyme specific inhibitor
4, Reagent, 2 uL, NADPH regeneration solution
5, Incubation time, 60 min, Isozyme specific temperature
6, Reagent, 4ul, Detection reagent
7, Incubation time, 20 min, Isozyme specific temperature
8, Detection, 1 sec, ViewLux luminescent read
The luciferase-based P450-GloTM Screening Systems were obtained from Promega (Madison, WI) for CYP 1A2 (V9770), CYP 2C9 (V9790), CYP2 C19 (V9880), CYP 2D6 (V9890), and CYP 3A4 Luciferin-PPXE (V9910) and were adapted for 1,536-well microplates and an automated protocol. The control compounds furafylline for 1A2 (F124), sulfaphenazole for CYP 2C9 (S0758), ketoconazole for CYP 2C19 (K1003), quinidine for 2D6 (Q3625), and ketoconazole for 3A4 (K1003) were purchased from Sigma Aldrich (St. Louis, MO). Recombinant P450 enzymes were obtained from baculovirus constructs expressed in insect cells (BD/Gentest).
Medium-binding white solid Kalypsys plates used. Mixtures kept on ice. 1A2: 10 nM 1A2, 100 uM Luc-ME, 100 mM KPO4; 2C9: 10 nM 2C9, 100 uM Luc-H, 25 mM KPO4; 2C19: 5 nM 2C19, 10 uM Luc-H EGE, 50 mM KPO4; 2D6: 5 nM 2D6, 30 uM Luc-ME EGE, 100 mM KPO4; 3A4: 10 nM, 25 uM Luc-PPXE. All amounts are reflected in their final concentration, working concentration is 2x.
NADPH regeneration solution: 1.3 mM NADP+, 3.3 mM glucose-6-phosphate, 3.3 mM MgCl2, 0.4 U/mL glucose-6-phosphate dehydrogenase for all isozymes, 200 mM KPO4 for 3A4. Mixture prepared at RT but kept on ice during automated run.
RT incubation in auxilliary plate hotel for 1A2, 2D6, and 3A4; 37C for 2C9 and 2C19.
Keywords: P450, CYP1A2, CYP2C19, CYP2C9, CYP2D6, CYP3A4, Luciferase, MLSMR, MLSCN, NIH Roadmap, qHTS, NCGC
% is scaled to controls: 0 for no effect and ±100 for the full control effect.

Row | Structure (SMILES) | AC50 | activity, negative = inhibition
1 | N[C@H](C(=O)O)c1nn[nH]n1 | inactive | 
2 | N.N.N.N.N.N.N.N.N.N.N.N.N.N.O.O.[Ru].[Ru].[Ru] | inconclusive: 31.6 µM [falling, single point] | 
3 | C=Cc1c(C)c2cc3[nH]c(cc4nc(cc5nc(cc1[nH]2)C(C)=C5CCC(=O)O)C(CCC(=O)O)=C4C)c(C)c3C=C | inconclusive: 25.1 µM [falling, partial curve, poor fit] | 
4 | C=Cc1c(C)c2cc3nc(cc4[nH]c(cc5nc(cc1[nH]2)C(C)=C5CCC(=O)O)c(CCC(=O)OC)c4C)[C@@]1(C)C3=CC=C(C(=O)OC)[C@H]1C(=O)OC (tested in a mixture with another compound) | inconclusive: 6.31 µM [falling, full curve] | 
5 | Nc1nccc(Nc2ccc(S(N)(=O)=O)cc2)n1 |  | inactive: -5.16% [at 11.4 µM]
6 | Cn1cc(-c2nc3cnc(N4CCNCC4)nc3n(C)c2=O)c2ccccc21 | inactive | 
7 | OC(CCCN1CCCCC1)(c1ccccc1)c1ccccc1 | active: 0.126 µM | 
